These are yes or no findings as the source states them, for the method shown. Some results given as binding are weak or reduced against the parent protein; the word gives no strength.
Biological target: modified EGF protein (EGF-derivative)
Assay: affinity chromatography on a Protein A column (MabSelect); capture from cell supernatant, washes, elution at low pH

Protein A (from UniProt P38507 37-327)
binding: binds

Source: US20210188931A1
